Consider 34 compounds from the supplement of paper PMC4635364.

Counter-ions that a name gives are not always drawn. This is one part of the list. Repeats in this data set agree poorly, so a single value says little.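 Cells: ReNCell VM human fetal ventral-midbrain neural progenitors, differentiated mitogen-free. Blinded raters compared doublecortin-stained (early neurons) or tyrosine hydroxylase-stained (dopaminergic neurons) images with untreated wells, where 0 means no change. After repeats and both raters were averaged, compounds scoring 2 or above became hits for retesting.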

Assay [1] has as its system ReNCell VM. Briefly: neuronal differentiation score (DCX+ cell fraction vs untreated, manual image score) (score (-3 to 3)); higher = more neuronal differentiation. Conditions: 2 uM, 2 weeks.
In assay [2] the test system is ReNCell VM. Briefly: dopaminergic neuron differentiation score (TH+ cell fraction vs untreated, manual image score) (score (0 to 3)); higher = more TH+ dopaminergic neuron differentiation. Conditions: 2 uM, 4 weeks, BDNF 10 ng/ml + GDNF 10 ng/ml.

For the compound `C[C@]12CC[C@@H]3c4ccc(OC(=O)N(CCCl)CCCl)cc4CC[C@H]3[C@@H]1CC[C@@H]2O`, the neuronal differentiation score with ReNCell VM [1] (library: Spectrum) is inactive: 0. In the assay with ReNCell VM [2] (library: Spectrum), the “dopaminergic neuron differentiation score” value is inactive: 0.

With `Cc1ncc(CN2CC=C(c3ccccc3)CC2)c(N)n1`, the neuronal differentiation score in the assay on ReNCell VM [1] (library: Tocriscreen) is inactive: 0. For the same compound, the “dopaminergic neuron differentiation score” value in the assay with ReNCell VM [2] (library: Tocriscreen) is inactive: 0.

For `O=c1n(Cl)c(=O)n(Cl)c(=O)n1Cl`, the neuronal differentiation score in the assay on ReNCell VM [1] (library: Spectrum) is inactive: 0. Also, in the assay with ReNCell VM [2] (library: Spectrum), the “dopaminergic neuron differentiation score” value is inactive: 0.

Take `CC(=O)OCC1=C(C(=O)O)N2C(=O)[C@@H](N)[C@H]2SC1` [Cephalosporanic acid, 7-amino]: the neuronal differentiation score with ReNCell VM [1] (library: Prestwick) was inactive: 0. Besides, the “dopaminergic neuron differentiation score” value in the assay on ReNCell VM [2] (library: Prestwick) is inactive: 0.

For the compound `CC(=O)OCC1=C(C(=O)O)N2C(=O)[C@@H](N)[C@H]2SC1`, the neuronal differentiation score with ReNCell VM [1] (library: Spectrum) was inactive: 0. Also, the “dopaminergic neuron differentiation score” value in the assay with ReNCell VM [2] (library: Spectrum) is inactive: 0.

As for `CC[C@@]1(O)C(=O)OCc2c1cc1n(c2=O)Cc2cc3ccccc3nc2-1` [Camptothecin], in the assay with ReNCell VM [1] (library: Tocriscreen), the neuronal differentiation score is inactive: 0. Moreover, in the assay on ReNCell VM [2] (library: Tocriscreen), the “dopaminergic neuron differentiation score” value was inactive: 0.

`CC[C@@]1(O)C(=O)OCc2c1cc1n(c2=O)Cc2cc3ccccc3nc2-1`: the neuronal differentiation score with ReNCell VM [1] (library: Spectrum) is inactive: 0. Besides, the “dopaminergic neuron differentiation score” value in the assay with ReNCell VM [2] (library: Spectrum) is inactive: 0.

Regarding `C#CC(C)(O)CC` (stereo not drawn), the neuronal differentiation score in the assay with ReNCell VM [1] (library: Spectrum) was inactive: 0. In the assay on ReNCell VM [2] (library: Spectrum), the “dopaminergic neuron differentiation score” value is inactive: 0.

On to `OC[C@@H](O)[C@H]1O[C@@H]2O[C@H](C(Cl)(Cl)Cl)O[C@@H]2[C@H]1O`, for which the neuronal differentiation score in the assay with ReNCell VM [1] (library: Spectrum) is inactive: 0. In addition, the “dopaminergic neuron differentiation score” value in the assay with ReNCell VM [2] (library: Spectrum) is inactive: 0.

For `Clc1ccc(N2CCN(Cc3c[nH]c4ncccc34)CC2)cc1` [L-745,870 trihydrochloride], the neuronal differentiation score with ReNCell VM [1] (library: Tocriscreen) was inactive: 0. Also, the “dopaminergic neuron differentiation score” value in the assay on ReNCell VM [2] (library: Tocriscreen) is inactive: 0.

For `C[C@@H]1O[C@@H](O[C@H]2CC[C@]3(C=O)[C@H]4CC[C@]5(C)[C@@H](C6=CC(=O)OC6)CC[C@]5(O)[C@@H]4CC[C@]3(O)C2)[C@H](O)[C@H](O)[C@H]1O` [convallatoxin], in the assay with ReNCell VM [1] (library: Natural), the neuronal differentiation score was inactive: 0. In the assay with ReNCell VM [2] (library: Natural), the “dopaminergic neuron differentiation score” value is inactive: 0.

Turning to `CN(C)C(=O)Oc1ccc[n+](C)c1` [Pyridostigmine iodide], in the assay on ReNCell VM [1] (library: Prestwick), the neuronal differentiation score was inactive: 0. The “dopaminergic neuron differentiation score” value in the assay with ReNCell VM [2] (library: Prestwick) is inactive: 0.

In the case of `CN1CCc2cc3c(cc2C1O)OCO3` (stereo not drawn), the neuronal differentiation score with ReNCell VM [1] (library: Spectrum) was inactive: 0. Also, the “dopaminergic neuron differentiation score” value with ReNCell VM [2] (library: Spectrum) is inactive: 0.

`Clc1ccc(C(OCCN2CCCCC2)c2ccccc2)cc1` (stereo not drawn): the neuronal differentiation score in the assay on ReNCell VM [1] (library: Spectrum) was inactive: 0. Moreover, the “dopaminergic neuron differentiation score” value in the assay with ReNCell VM [2] (library: Spectrum) is inactive: 0.

In the case of `CN1[C@@H]2CC[C@H]1C[C@@H](OC(=O)C(CO)c1ccccc1)C2` (stereo partly drawn), in the assay with ReNCell VM [1] (library: Spectrum), the neuronal differentiation score is inactive: 0. Moreover, the “dopaminergic neuron differentiation score” value with ReNCell VM [2] (library: Spectrum) was inactive: 0.

On to `N#C[C@H](O[C@@H]1O[C@H](CO[C@@H]2O[C@H](CO)[C@@H](O)[C@H](O)[C@H]2O)[C@@H](O)[C@H](O)[C@H]1O)c1ccccc1`, for which the neuronal differentiation score in the assay on ReNCell VM [1] (library: Spectrum) was inactive: 0. The “dopaminergic neuron differentiation score” value in the assay on ReNCell VM [2] (library: Spectrum) was inactive: 0.

On to `CC(=O)N1CC[N+](C)(C)CC1` [4-Acetyl-1,1-dimethylpiperazinium iodide], for which the neuronal differentiation score in the assay with ReNCell VM [1] (library: Tocriscreen) is inactive: 0. In the assay on ReNCell VM [2] (library: Tocriscreen), the “dopaminergic neuron differentiation score” value is inactive: 0.

Regarding `Cc1cc(C(C#N)c2ccc(Cl)cc2)c(Cl)cc1NC(=O)c1cc(I)cc(I)c1O` (stereo not drawn), the neuronal differentiation score in the assay on ReNCell VM [1] (library: Spectrum) was inactive: 0. Besides, the “dopaminergic neuron differentiation score” value in the assay with ReNCell VM [2] (library: Spectrum) was inactive: 0.

Take `CC(=O)O[C@H]1CC[C@@]2(C)C(=CC[C@@H]3[C@@H]2CC[C@]2(C)C(=O)CC[C@@H]32)C1`: in the assay with ReNCell VM [1] (library: Spectrum), the neuronal differentiation score was inactive: 0. The “dopaminergic neuron differentiation score” value in the assay on ReNCell VM [2] (library: Spectrum) was inactive: 0.

With `C[C@H](N)Cn1ccc2cc(F)c(Cl)cc21` [Ro 60-0175 fumarate], in the assay with ReNCell VM [1] (library: Tocriscreen), the neuronal differentiation score was inactive: 0. Also, in the assay on ReNCell VM [2] (library: Tocriscreen), the “dopaminergic neuron differentiation score” value was inactive: 0.

Consider `O=C1C=CC(=O)C=C1` [p-Benzoquinone], for which the neuronal differentiation score in the assay on ReNCell VM [1] (library: LOPAC) was inactive: 0. For the same compound, the “dopaminergic neuron differentiation score” value in the assay with ReNCell VM [2] (library: LOPAC) is inactive: 0.

Consider `C#C[C@]1(O)CC[C@H]2[C@@H]3CCC4=Cc5nc6nc7ccccc7n6cc5C[C@]4(C)[C@H]3CC[C@@]21C`, for which the neuronal differentiation score in the assay with ReNCell VM [1] (library: LOPAC) was inactive: -3. Moreover, the “dopaminergic neuron differentiation score” value with ReNCell VM [2] (library: LOPAC) is inactive: 0.

`COC(=O)C1=CO[C@@H](C)[C@@H]2CN3CC[C@@]4(C(=O)Nc5cc(OC)ccc54)[C@H]3C[C@H]12`: in the assay on ReNCell VM [1] (library: Phytochemical), the neuronal differentiation score is inactive: 0. Also, the “dopaminergic neuron differentiation score” value in the assay on ReNCell VM [2] (library: Phytochemical) is inactive: 0.

Regarding `Cn1cc(C(=O)C(=O)N[C@H]2CN3CCC2CC3)c2ccccc21`, the neuronal differentiation score with ReNCell VM [1] (library: Tocriscreen) is inactive: 0. Also, the “dopaminergic neuron differentiation score” value in the assay on ReNCell VM [2] (library: Tocriscreen) was inactive: 0.

Consider `CC[N+]1(C)CCCC(OC(=O)C(O)(c2ccccc2)c2ccccc2)C1` (stereo not drawn) [Pipenzolate bromide], for which the neuronal differentiation score with ReNCell VM [1] (library: Prestwick) was inactive: 0. In addition, in the assay on ReNCell VM [2] (library: Prestwick), the “dopaminergic neuron differentiation score” value was inactive: 0.

As to `CO[C@H]1C=C2CCN(C)[C@H]2[C@@H]2c3cc4c(cc3[C@@H](O)O[C@@H]21)OCO4` [Unsevine], the neuronal differentiation score in the assay on ReNCell VM [1] (library: Phytochemical) is inactive: 0. Besides, in the assay with ReNCell VM [2] (library: Phytochemical), the “dopaminergic neuron differentiation score” value is inactive: 0.

As for `C=C1C/C(=C/C)C(=O)O[C@@H]2CCN3CC=C(COC(=O)[C@]1(C)O)[C@H]23` [Seneciphylline], the neuronal differentiation score in the assay with ReNCell VM [1] (library: Phytochemical) was inactive: 0. Also, the “dopaminergic neuron differentiation score” value with ReNCell VM [2] (library: Phytochemical) was inactive: 0.

For `COc1cc2c(cc1OC)[C@@]13CCN4CC5=CCO[C@H]6CC(=O)N2[C@H]1[C@H]6[C@H]5C[C@H]43` [Brucine], in the assay with ReNCell VM [1] (library: Phytochemical), the neuronal differentiation score is inactive: 0. Besides, the “dopaminergic neuron differentiation score” value with ReNCell VM [2] (library: Phytochemical) is inactive: 0.

For `N#CC(C#N)=Cc1ccc([N+](=O)[O-])c(O)c1` [Tyrphostin AG 126], the neuronal differentiation score in the assay with ReNCell VM [1] (library: LOPAC) is inactive: 0. Besides, the “dopaminergic neuron differentiation score” value in the assay on ReNCell VM [2] (library: LOPAC) was inactive: 0.

Turning to `COc1cc2c(c(OC)c1OC)-c1ccc(O)c(=O)cc1[C@@H](N)CC2` [Trimethylcolchicinic acid], in the assay with ReNCell VM [1] (library: Phytochemical), the neuronal differentiation score was inactive: 0. The “dopaminergic neuron differentiation score” value in the assay on ReNCell VM [2] (library: Phytochemical) was inactive: 0.

`NCCc1ccc(O)cc1` [Tyramin hydrochloride]: in the assay with ReNCell VM [1] (library: Phytochemical), the neuronal differentiation score was inactive: 0. The “dopaminergic neuron differentiation score” value with ReNCell VM [2] (library: Phytochemical) was inactive: 0.

For `C[C@H]1O[C@@H](C[N+](C)(C)C)CS1`, the neuronal differentiation score in the assay with ReNCell VM [1] (library: LOPAC) is inactive: -1. The “dopaminergic neuron differentiation score” value with ReNCell VM [2] (library: LOPAC) is inactive: 0.

As for `O=C1CSC(c2ccccc2Cl)c2cc(Cl)ccc2N1` (stereo not drawn), the neuronal differentiation score in the assay with ReNCell VM [1] (library: Tocriscreen) is inactive: 0. Besides, the “dopaminergic neuron differentiation score” value in the assay with ReNCell VM [2] (library: Tocriscreen) was inactive: 0.

In the case of `CC[C@@H](CO)NC(=O)[C@@H]1C=C2c3cccc4[nH]cc(c34)C[C@H]2N(C)C1` [Methylergonovine maleate], the neuronal differentiation score in the assay with ReNCell VM [1] (library: LOPAC) is inactive: 0. Besides, in the assay with ReNCell VM [2] (library: LOPAC), the “dopaminergic neuron differentiation score” value is inactive: 0.
